Test [1] has as its target T1, AtGyrA (LexA DNA-binding domain fusion) (A. thaliana) (UniProt Q9CAF6).
T1 sequence: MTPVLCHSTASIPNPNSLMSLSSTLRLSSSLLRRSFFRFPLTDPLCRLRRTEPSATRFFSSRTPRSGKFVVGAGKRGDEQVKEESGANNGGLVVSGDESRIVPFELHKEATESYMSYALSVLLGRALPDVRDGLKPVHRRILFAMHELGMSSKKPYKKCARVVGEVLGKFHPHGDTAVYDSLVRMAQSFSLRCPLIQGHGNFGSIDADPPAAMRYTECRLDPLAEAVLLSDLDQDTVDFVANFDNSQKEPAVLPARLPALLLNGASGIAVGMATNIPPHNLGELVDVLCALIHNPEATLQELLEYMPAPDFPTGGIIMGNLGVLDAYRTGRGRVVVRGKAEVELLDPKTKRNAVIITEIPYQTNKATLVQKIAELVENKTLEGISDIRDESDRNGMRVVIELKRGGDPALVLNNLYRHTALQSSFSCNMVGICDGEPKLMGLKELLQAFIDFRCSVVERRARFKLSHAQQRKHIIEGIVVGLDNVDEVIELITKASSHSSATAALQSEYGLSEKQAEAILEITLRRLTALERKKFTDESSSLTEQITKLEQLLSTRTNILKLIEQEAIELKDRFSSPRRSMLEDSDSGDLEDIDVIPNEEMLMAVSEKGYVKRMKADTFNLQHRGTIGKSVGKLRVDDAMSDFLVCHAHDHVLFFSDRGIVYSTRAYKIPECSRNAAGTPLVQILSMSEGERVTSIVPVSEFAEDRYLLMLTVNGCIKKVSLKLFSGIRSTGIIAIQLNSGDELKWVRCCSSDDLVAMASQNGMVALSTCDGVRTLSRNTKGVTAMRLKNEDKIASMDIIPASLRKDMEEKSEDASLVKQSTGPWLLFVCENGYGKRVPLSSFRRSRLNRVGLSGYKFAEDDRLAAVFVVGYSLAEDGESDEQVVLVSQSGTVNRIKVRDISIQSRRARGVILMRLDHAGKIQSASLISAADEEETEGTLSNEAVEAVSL
Nature of the test: two-hybrid; Matchmaker LexA Two-Hybrid System (Clontech); bait fused to the LexA DNA-binding domain, prey fused to the B42 activation domain.

In test [2] the target is T2, AtGyrB3 (two-hybrid fusions, Matchmaker LexA system) (A. thaliana), Q8VY11.
T2 chain: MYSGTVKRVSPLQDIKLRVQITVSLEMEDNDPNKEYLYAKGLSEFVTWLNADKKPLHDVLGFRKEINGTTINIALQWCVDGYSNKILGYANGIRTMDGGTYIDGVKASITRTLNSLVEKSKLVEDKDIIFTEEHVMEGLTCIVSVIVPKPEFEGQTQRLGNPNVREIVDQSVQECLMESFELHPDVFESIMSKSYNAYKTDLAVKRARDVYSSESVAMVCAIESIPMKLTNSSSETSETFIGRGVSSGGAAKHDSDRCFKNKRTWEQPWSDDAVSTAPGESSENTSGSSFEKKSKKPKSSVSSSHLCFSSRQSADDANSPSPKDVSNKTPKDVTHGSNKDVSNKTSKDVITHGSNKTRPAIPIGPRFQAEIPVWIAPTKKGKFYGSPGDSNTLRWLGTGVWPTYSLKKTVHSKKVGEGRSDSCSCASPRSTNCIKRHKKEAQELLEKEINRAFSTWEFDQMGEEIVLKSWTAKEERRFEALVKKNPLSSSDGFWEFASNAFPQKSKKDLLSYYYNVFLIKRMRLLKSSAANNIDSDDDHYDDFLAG
The description is as above. As to conditions: remark: other sources report otherwise.

These are yes or no findings as the source states them, for the method shown. Sequences can lack the tags named with a protein.

B1: AtGyrB2 (B42 activation domain fusion) (protein, UniProt Q94BZ7 1-732)
chain: MALLQRASYLRLYYLRLMGSRPRLFSSSLSPALHRHSSTLSSPPFSSPSPSFRLKFQLTSVLSQRLIQRNAISSRFLSTEASQETTTSKGYSSEQIQVLEGLDPVRKRPGMYIGSTGSRGLHHLVYEILDNAIDEAQAGYASKVDVVLHADGSVSVVDNGRGIPTDLHPATKKSSLETVLTVLHAGGKFGGTSSGYSVSGGLHGVGLSVVNALSEALEVSVWRDGMEHKQNYSRGKPITTLTCRVLPLESKGTKGTSIRFWPDKEVFTTAIEFDHNTIAGRIRELAFLNPKVTISLKKEDDDPEKTQYSEYSFAGGLTEYVSWLNTDKNPIHDVLGFRREINGATVDVALQWCSDAYSDTMLGYANSIRTIDGGTHIEGVKASLTRTLNTLAKKSKTVKEKDISLSGEHVREGLTCIVSVKVPNPEFEGQTKTRLGNPEVRKIVDQSVQEYLTEFLELHPDILESIISKSLNAYKAALAAKRARELVRSKSVLKSSSLPGKLADCSSTDPEVSEIFIVEGDSAGGSAKQGRDRRFQAILPLRGKILNIERKDEAAMYKNEEIQNLILGLGLGVKGEDFKKENLRYHKIIILTDADVDGAHIRTLLLTFFFRYQRALFDAGCIYVGVPPLFKVERGKNAQYCYDDADLKKITSNFPANASYNIQRFKGLGEMMPEQLWETTMNPETRILKQLVVDDIAEANMTFSSLMGARVDVRKELIKNAATRINLQRLDI
For the molecule B1, the binding entry in test [1] was “no binding”.

B2: AtGyrB3 (two-hybrid fusions, Matchmaker LexA system) (protein, UniProt Q8VY11 1-546)
chain: MYSGTVKRVSPLQDIKLRVQITVSLEMEDNDPNKEYLYAKGLSEFVTWLNADKKPLHDVLGFRKEINGTTINIALQWCVDGYSNKILGYANGIRTMDGGTYIDGVKASITRTLNSLVEKSKLVEDKDIIFTEEHVMEGLTCIVSVIVPKPEFEGQTQRLGNPNVREIVDQSVQECLMESFELHPDVFESIMSKSYNAYKTDLAVKRARDVYSSESVAMVCAIESIPMKLTNSSSETSETFIGRGVSSGGAAKHDSDRCFKNKRTWEQPWSDDAVSTAPGESSENTSGSSFEKKSKKPKSSVSSSHLCFSSRQSADDANSPSPKDVSNKTPKDVTHGSNKDVSNKTSKDVITHGSNKTRPAIPIGPRFQAEIPVWIAPTKKGKFYGSPGDSNTLRWLGTGVWPTYSLKKTVHSKKVGEGRSDSCSCASPRSTNCIKRHKKEAQELLEKEINRAFSTWEFDQMGEEIVLKSWTAKEERRFEALVKKNPLSSSDGFWEFASNAFPQKSKKDLLSYYYNVFLIKRMRLLKSSAANNIDSDDDHYDDFLAG
As to B2, the binding entry in test [1] is reported as “no binding”.

B3: AtGyrB3 (two-hybrid fusions, Matchmaker LexA system), Q8VY11 1-546 (protein)
chain: MYSGTVKRVSPLQDIKLRVQITVSLEMEDNDPNKEYLYAKGLSEFVTWLNADKKPLHDVLGFRKEINGTTINIALQWCVDGYSNKILGYANGIRTMDGGTYIDGVKASITRTLNSLVEKSKLVEDKDIIFTEEHVMEGLTCIVSVIVPKPEFEGQTQRLGNPNVREIVDQSVQECLMESFELHPDVFESIMSKSYNAYKTDLAVKRARDVYSSESVAMVCAIESIPMKLTNSSSETSETFIGRGVSSGGAAKHDSDRCFKNKRTWEQPWSDDAVSTAPGESSENTSGSSFEKKSKKPKSSVSSSHLCFSSRQSADDANSPSPKDVSNKTPKDVTHGSNKDVSNKTSKDVITHGSNKTRPAIPIGPRFQAEIPVWIAPTKKGKFYGSPGDSNTLRWLGTGVWPTYSLKKTVHSKKVGEGRSDSCSCASPRSTNCIKRHKKEAQELLEKEINRAFSTWEFDQMGEEIVLKSWTAKEERRFEALVKKNPLSSSDGFWEFASNAFPQKSKKDLLSYYYNVFLIKRMRLLKSSAANNIDSDDDHYDDFLAG
Regarding B3, the binding result in test [2] was “no binding”.

Values taken from paper PMC2845627.
